Values from PubChem BioAssay AID1259260 (Sanger Institute, 2017)
The whole screen tested 794 reagents; this is an unselected part. In the full data, 13 (1.6%) were called active. 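Calls reflect only knock-down without drug; synergy above 0.15 was grouped apart and does not change the call.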 Entries without a mark were called inactive. Viability is capped at 1. Not all columns of the deposit are shown. No sequences are given here. Not stated in the record: the amount of reagent, the time to read-out.

Assay: 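Essential and drug-synergistic kinases in a colorectal cancer cell line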 (primary screen)
Cell system: human NCI-H716 colorectal cancer cells
Knock-down reagent: siRNA pool against human genes
Challenge: anchor drugs BYL719 (alpelisib) 1 µM, cetuximab 5 µg/ml or trametinib 10 nM, each at a dose chosen to harm viability only mildly; DMSO vehicle for the knock-down-alone arm
Read-out: 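Mean viability over replicates against non-targeting siRNA, robust z-score without drug, and per-drug synergy comparing combined with single treatments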
Scale: viability robust z-score, siRNA alone: higher = more surviving cells; below -3 called essential; viability vs control, no drug: higher = more surviving cells
Rule for the call: 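Essential when the robust z-score for knock-down alone falls below -3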
Meaning of the calls: active = essential (knock-down alone lowers viability); inactive = no essential effect

MOS → viability robust z-score, siRNA alone: -1.39; viability vs control, no drug (fraction of control): 0.793
RPS6KA5 → viability robust z-score, siRNA alone: -2.48; viability vs control, no drug (fraction of control): 0.68
PRKAR2B → viability robust z-score, siRNA alone: -1.07; viability vs control, no drug (fraction of control): 0.826
DTYMK → viability robust z-score, siRNA alone: -1.7; viability vs control, no drug (fraction of control): 0.761
CDK5 → viability robust z-score, siRNA alone: 0.602; viability vs control, no drug (fraction of control): 1
BMP2K → viability robust z-score, siRNA alone: -1.87; viability vs control, no drug (fraction of control): 0.743
WHR1 → viability robust z-score, siRNA alone: 0.602; viability vs control, no drug (fraction of control): 1
PFKFB2 → viability robust z-score, siRNA alone: -1.77; viability vs control, no drug (fraction of control): 0.754
PRKAA2 → viability robust z-score, siRNA alone: 0.602; viability vs control, no drug (fraction of control): 1
PI4KB → viability robust z-score, siRNA alone: 0.424; viability vs control, no drug (fraction of control): 0.981
PDGFRL → viability robust z-score, siRNA alone: 0.602; viability vs control, no drug (fraction of control): 1
AK5 → viability robust z-score, siRNA alone: -0.823; viability vs control, no drug (fraction of control): 0.852

2 entries already listed, ordered by “viability vs control, no drug (fraction of control)”, lowest first.
BMP2K → viability robust z-score, siRNA alone: -1.87; viability vs control, no drug (fraction of control): 0.743
WHR1 → viability robust z-score, siRNA alone: 0.602; viability vs control, no drug (fraction of control): 1
